Test results as given in publication PMC6201568.

Tests used:
[1] = system: T1, PhaR-His6 (Bradyrhizobium diazoefficiens USDA110); test: EMSA; settings: 285 mM Tris-HCl pH 8.0, 0.14 mg/mL BSA, 1.43 mM DTT, 5% glycerol, 0.04 mg/mL poly(dI-dC), 3.06 mM EDTA, 10 uL, 30 min at 25 C, 6% PAGE in TAE pH 8.2, PhaR-His6 0-110 nM, recombinant protein, residues 1-199, protein details: C-terminal His6, label: none (SYBR Green stain), probe letters rebuilt from the primers and the genome
T1 sequence (looked up): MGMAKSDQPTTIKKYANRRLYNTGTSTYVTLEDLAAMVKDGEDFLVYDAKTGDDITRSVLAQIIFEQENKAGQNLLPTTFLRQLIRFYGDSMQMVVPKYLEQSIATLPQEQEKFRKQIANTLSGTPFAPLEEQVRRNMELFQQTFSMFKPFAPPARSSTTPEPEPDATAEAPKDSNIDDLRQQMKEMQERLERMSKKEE

[2] = system: T1, PhaR-His6 (Bradyrhizobium diazoefficiens USDA110); test: DNase I footprinting; settings: one protected site overlapping -35; 285 mM Tris-HCl pH 8.0, 0.14 mg/mL BSA, 1.43 mM DTT, 5% glycerol, 0.04 mg/mL poly(dI-dC), 3.06 mM EDTA, 10 uL, 30 min at 25 C; 6% PAGE in TAE pH 8.2; PhaR-His6 0-110 nM; recombinant protein; residues 1-199; protein details: C-terminal His6; label: 5'-FAM on upper or lower strand; probe letters rebuilt from the primers and the genome
[3] = shift at 27.8 nM, complete at 110 nM
[4] = shift at 27.8 nM, complete at 55 nM

“TCCGGGGGATGTCATTCCGGGGCGCGCCACTTGGCGCGAGCCCGGAATCCAATTCCCTGCGATCTCCGGTAGCCCGATGGATTCTCAGATGCGCAATTGCGCATCATGGCTCCCTCGCTTCGGTCGGGCCCCGGAATGACGAAGTACACCTCAACCACGGGTTCCCGTACCCCGGAACCTCATCCTCTCCGGGATTAAATTTTCCCCGCGCACCCCGGATCGCGTTGCGCTGCACAATGTTGACATGTTACGCAGGGATACTGCTGGGCGTTGGACGAGCCATCTTTTTCGTTACGCGTATCCAGTCTTCGTAC (double strand) [phaP4 promoter]”: binds ([1]; shift at 13.8 nM, complex at 110 nM).

“AATGCGAGCTGGCGTGTTGACCGTCATTCGCACGATTGCACGGAATGCGGCGGAGGTTCGCGCGCGCAGCCCTGATCTGTTCCAAACGCAATGCCCGTTGCCTCACGAAAGCTGAATTGAAGTTTATGAGCACGTTGCCGAAGCCGGAGCACAGATGTGTCCGGCTTCTTGCTGCCGCATCTTGTGTGCAGTGTCCGGCGCCGGAGATCGGCGGTTCGGCTCTTTTCAGTTGAATAAACCACCCGGTGGAGGCATTATATTGCACCGCAGCATTTCGCTTTGGTCGAATCGTAGAGCGTCTTTCAA (double strand) [blr2367 (exoZ operon) promoter]”: binds [1, 3].

“CTCACCAAGAGCTCCGATTCGAGCCGGATCGAAACGACATAAGTCCACAAGCGAGGCCCGGTTCAAGTCTGGAATTGCAAGTATCGCGCCGCACAACTCGCGGAACCCGCCGGCCCGCGCGCGGCGGCCCCGCGCTGGCATTGCCTCATGCCGTGGAATTTTTTCAGCGCCTGCGCACAAGTGAGAGTCGGTCGTCAGGTTGCTGTAAGGTAACTGACATCTGCGTCCAACATATCGGCATGACGCTTACGACTTTCGTATTGACGCGTTTTGCATTCGGGCGGAGTGTTGCTGTCGCAGCGTCAAAAGGCGCGCATATTTGGAGGAACGGATG (double strand) [exaA promoter]”: binds more weakly ([1]; some shift at 110 nM).

“GGCATTGCGGTTAATGCGTGCGGTTTCTCCGTGAATTTCTGGTAATTGACAGCACACACACTTTTCATTTTGCAGTGCAGCAACTATCTGGTTTGGGTGGACGTTGAACGTCGCCTGCCAGGAGTTGCCGTGTCGCTTGCCAGAAATATCGATCTCTTGAGACGCCTGCCGAAGGTGGATGGTCTGCGCTTTGCCGACTTCGGCCGCAGCGCGGATGCGCCCGGTCCATTGCAAGAGGTTGCGGACTTCGGTGACAATCCCGGCAATCTTCGCATGTTCGCGTTCGCGCCGGCGCAGTTGCAGATGCCGCGC (double strand) [phaZ3 promoter]”: binds [1, 4].

“ACGGCAAGACCCACGACATTGTCGTGCTCGGCCACAACATCGCGCAGGTCCAGGCCCAGATGGAGGCCTATGGGCTGCCAGGTGCCGTCCAGCTCTAAAGACCGCGATCAGGCACGCCTTCGCCGGGATTGGTGAGGGAGGCATCATATTGCCTCCTGTTAAGGCTGTTCACGATTTCGTGATACTGCAGTGCAATATGAATGTTGCATCGCACAATTAACTATGCCATATAAGCCGTGCCCCGGGCCAATGCGGACGGGGTGAGCCCATAGCTCAGACCATTGAGGATGGAGAGAACCCC (double strand) [phaP5 promoter]”: binds ([1]; shift at 27.8 nM, complex at 110 nM).

“GGGCCGAGCCTTTGAGAATGAGTTTCCTTTGCGGGGCCAACGGGTAGCTGCGGCGCAGCAATCCGGACATTGGACAATTTGTCCAATGTTGCAGTGCGGAATGTTGGGCCAGACAGGCCCGGATTGCCTGGCGCCCCGCCGGGCGGTCGGCTTTGGTTTTCAGGACGTTAAGGGCGCACGAATGGCGACGGCACAGACCCCTGCAATGGCAGACCTCCACTCGGGCGAGCACGGCCACGACCAGGCCAGTCCCGGCGAGATCGCCATCGGCGTCATCATCGGCCGCACCTCGGAATTCTTCGACT (double strand) [cyoA promoter]”: binds [1, 4].

“GGATTGAGGGGATTCTGAAACAGGAACTTGGTCGCGTCGGTGACCGCACGTGCCGGATTGAGAGAGGCGTGGGCCATCTCGTACATCCAGTACATCGGCGTCGTCAGGACCGGACTGCCTTCTGCAGCCAGGGGCGGCGCGCCGCCAAACTCACCAATAGGCATCGCTATATCCCTCTTCGCATCGCAGCATACTGCCGAATGCGTAATATTGCGTCAATGCACCGTCCCCGTACATCTACGTGGCGGAGACGGTTAAATCAGCCTGAATCCACGGGAAAGTGAAACTATTCGCCGCTGGACAGCAGCGAGCCGTT (double strand) [phaZ1 promoter]”: binds [1, 3].

“CTTGCCACGCTGTGCATCGGCGGCGGCATGGGTATCGCGATGTGTCTGGCGCGCGACTGAATCTAGCTGTCGCGCAGCTTATTTGGACCATGCGCGTGCGCTGCACACATAAGTGAGTGCGTTGCACGCGACTAAAAAGGCAGCGGTTGCAAATCAAATATTCTTCGCAACCGCCTCAGCCTCGACTAAAGAGAAACGCCCGGCTCACGCCGGGCGTTTTGTTCTTGATGTCCGTCAAACGTCCCGCATAATCCGTAGCTAAAAACGATCACTCAGAAACGTCCGAAGAGTCCAAGGGAAGGAATACGATATGGCACGTGTTGCATTGG (double strand) [phbB2 promoter]”: binds more weakly ([1]; some shift at 110 nM).

“GGCGTGATCGGCAATATCATCTGGTTCGTGCTGGCCGGCTGGTGGCTGGCGCTCGGCCACCTCGTGACCGCTCTGGTCCTGGCGATCACCATCATCGGCATCCCCTTCGCCTGGGCCCATCTGAAGCTCGCCGGCATCGCGCTCTGGCCGATCGGCAAGGTGATCGTGCCGGCCTAGCGGCAGTCCCGGTCCCAAGTAACACCCCAAGTGTGCGCCGCCCCCAACTTCACCTTGCGCTGCGGCAAAAAACTTGCACACTCGGCTGAACCGGGCAGTCAAGCGAGCTCGAACCAGGGGAGCGAG (double strand) [ppc promoter]” was tested, and the half-maximal binding ([1]; about half of DNA shifted only at highest concentration) was 110 nM.

“CGAAGGCACCGTTGCGCACGCCCGTCTCTTGCACGAAAAAATCCTCCTAGAACCCGCGACACATAGCGCGACCAAGCTTTGGCGCCATCGCAGTCACCGTGAATAATAGGCCATCCGGCCTAGGTTGGGCGACCTAATACTGATGAACGCTGGCGTTGCCAAGCCGATCCCGCAGGATTTGGTTTATTCAAGGACCGCGCCAAACGTCGCGCATGTCTGCTCTGAGCAGGTGCATCAAAAAATCACGAATGATCGCGCAACCAAATGCGCGTTTCGACGTTATCGGGGGTTATTGCGACGCACAATTCCCTGGGC (double strand) [pckA promoter]”: binds more weakly ([1]; some shift at 110 nM).

“TCCGGGGGATGTCATTCCGGGGCGCGCCACTTGGCGCGAGCCCGGAATCCAATTCCCTGCGATCTCCGGTAGCCCGATGGATTCTCAGATGCGCAATTGCGCATCATGGCTCCCTCGCTTCGGTCGGGCCCCGGAATGACGAAGTACACCTCAACCACGGGTTCCCGTACCCCGGAACCTCATCCTCTCCGGGATTAAATTTTCCCCGCGCACCCCGGATCGCGTTGCGCTGCACAATGTTGACATGTTACGCAGGGATACTGCTGGGCGTTGGACGAGCCATCTTTTTCGTTACGCGTATCCAGTCTTCGTAC (double strand) [FAM-phaP4 promoter (footprint)]”: binds [2].

For some assays here: The comparison behind a weaker result is the experiment's own reference, which may not be listed here. Tags and fusion partners may be left off the protein sequences shown.
